# Data published in paper PMC11836120, “A small signaling domain controls PPIP5K phosphatase activity in phosphate homeostasis” (Nature Communications, 2025).
# These are yes or no findings as the source states them, for the method shown.
# B1: S. cerevisiae Vip1 phosphatase domain (ScVip1^PD, residues 536-1107) (domain or fragment, UniProt Q06685 536-1107)
# chain: KWVFKGLAIIIRHADRTPKQKFKHSFTSPIFISLLKGHKEEVVIRNVNDLKIVLQALRIALDEKAGNPAKIKVLANALEKKLNFPGTKIQLKPVLNKENEVEKVQFILKWGGEPTHSAKYQATELGEQMRQDFDLLNKSILQNIKIFSSSERRVLHTAQYWTRALFGADELGSDEISIRKDLLDDSNAAKDLMDKVKKKLKPLLREGKEAPPQFAWPSKMPEPYLVIKRVVELMNYHKKIMDNNFAKKDVNSMQTRWCTSEDPSLFKERWDKLFKEFNNAEKVDPSKISELYDTMKYDALHNRQFLENIFDPGLPNEAIADELGSHSLVDRYPINVLAKNNFKIIDSHSMNNSGKNSSNSVGSLGWVLESGKTSTARNPKSSSQFDEPRFMQLRELYKLAKVLFDFICPKEYGISDAEKLDIGLLTSLPLAKQILNDIGDMKNRETPACVAYFTKESHIYTLLNIIYESGIPMRIARNALPELDYLSQITFELYESTDASGQKSHSIRLKMSPGCHTQDPLDVQLDDRHYISCIPKISLTKHLDMDYVQQKLRNKFTRVIMPPKFTPVNITS
# B2: S. cerevisiae Vip1 loop-truncated phosphatase domain (ScVip1^(PD Δ848-918), residues 536-1107, loop replaced by a Gly-Ser-Ser-Gly linker) (domain or fragment, UniProt Q06685 536-847; Q06685 919-1107)
# chain: KWVFKGLAIIIRHADRTPKQKFKHSFTSPIFISLLKGHKEEVVIRNVNDLKIVLQALRIALDEKAGNPAKIKVLANALEKKLNFPGTKIQLKPVLNKENEVEKVQFILKWGGEPTHSAKYQATELGEQMRQDFDLLNKSILQNIKIFSSSERRVLHTAQYWTRALFGADELGSDEISIRKDLLDDSNAAKDLMDKVKKKLKPLLREGKEAPPQFAWPSKMPEPYLVIKRVVELMNYHKKIMDNNFAKKDVNSMQTRWCTSEDPSLFKERWDKLFKEFNNAEKVDPSKISELYDTMKYDALHNRQFLENIFDPGSSGQFDEPRFMQLRELYKLAKVLFDFICPKEYGISDAEKLDIGLLTSLPLAKQILNDIGDMKNRETPACVAYFTKESHIYTLLNIIYESGIPMRIARNALPELDYLSQITFELYESTDASGQKSHSIRLKMSPGCHTQDPLDVQLDDRHYISCIPKISLTKHLDMDYVQQKLRNKFTRVIMPPKFTPVNITS
# Columns and labels:
# [1] = molecular target: S. cerevisiae Vip1 phosphatase domain (ScVip1^PD, residues 536-1107) (Saccharomyces cerevisiae) (UniProt Q06685); test: SEC; analytical size-exclusion chromatography, Superdex 200 Increase 10/300 GL, 20 mM Hepes pH 7.5, 150 mM NaCl, 0.75 ml/min; both purified
# [2] = molecular target: S. cerevisiae Vip1 loop-truncated phosphatase domain (ScVip1^(PD Δ848-918), residues 536-1107, loop replaced by a Gly-Ser-Ser-Gly linker) (Saccharomyces cerevisiae) (UniProt Q06685); test: crystal structure; apo ScVip1^(PD Δ848-918) crystals, 3.4 Å; protein in 20 mM Hepes pH 7.5, 150 mM NaCl, 0.5 mM zinc acetate; crystal packing between adjacent GAF domains; both purified
Binder,binding [1],binding [2]
B1,no binding,
B2,,no binding
